Data as given in patent US8697385.
Results are given in words; binding and its absence hold for the method and conditions named. Binding seen in cells or lysates may run through a third protein. Some entries that bind do so weakly or less than the wild type. Sequences can lack the tags named with a protein.

Protein sequences, listed by entry. Tags and fused reporters are not part of them. Residues count along the entry.
UniProt P35580: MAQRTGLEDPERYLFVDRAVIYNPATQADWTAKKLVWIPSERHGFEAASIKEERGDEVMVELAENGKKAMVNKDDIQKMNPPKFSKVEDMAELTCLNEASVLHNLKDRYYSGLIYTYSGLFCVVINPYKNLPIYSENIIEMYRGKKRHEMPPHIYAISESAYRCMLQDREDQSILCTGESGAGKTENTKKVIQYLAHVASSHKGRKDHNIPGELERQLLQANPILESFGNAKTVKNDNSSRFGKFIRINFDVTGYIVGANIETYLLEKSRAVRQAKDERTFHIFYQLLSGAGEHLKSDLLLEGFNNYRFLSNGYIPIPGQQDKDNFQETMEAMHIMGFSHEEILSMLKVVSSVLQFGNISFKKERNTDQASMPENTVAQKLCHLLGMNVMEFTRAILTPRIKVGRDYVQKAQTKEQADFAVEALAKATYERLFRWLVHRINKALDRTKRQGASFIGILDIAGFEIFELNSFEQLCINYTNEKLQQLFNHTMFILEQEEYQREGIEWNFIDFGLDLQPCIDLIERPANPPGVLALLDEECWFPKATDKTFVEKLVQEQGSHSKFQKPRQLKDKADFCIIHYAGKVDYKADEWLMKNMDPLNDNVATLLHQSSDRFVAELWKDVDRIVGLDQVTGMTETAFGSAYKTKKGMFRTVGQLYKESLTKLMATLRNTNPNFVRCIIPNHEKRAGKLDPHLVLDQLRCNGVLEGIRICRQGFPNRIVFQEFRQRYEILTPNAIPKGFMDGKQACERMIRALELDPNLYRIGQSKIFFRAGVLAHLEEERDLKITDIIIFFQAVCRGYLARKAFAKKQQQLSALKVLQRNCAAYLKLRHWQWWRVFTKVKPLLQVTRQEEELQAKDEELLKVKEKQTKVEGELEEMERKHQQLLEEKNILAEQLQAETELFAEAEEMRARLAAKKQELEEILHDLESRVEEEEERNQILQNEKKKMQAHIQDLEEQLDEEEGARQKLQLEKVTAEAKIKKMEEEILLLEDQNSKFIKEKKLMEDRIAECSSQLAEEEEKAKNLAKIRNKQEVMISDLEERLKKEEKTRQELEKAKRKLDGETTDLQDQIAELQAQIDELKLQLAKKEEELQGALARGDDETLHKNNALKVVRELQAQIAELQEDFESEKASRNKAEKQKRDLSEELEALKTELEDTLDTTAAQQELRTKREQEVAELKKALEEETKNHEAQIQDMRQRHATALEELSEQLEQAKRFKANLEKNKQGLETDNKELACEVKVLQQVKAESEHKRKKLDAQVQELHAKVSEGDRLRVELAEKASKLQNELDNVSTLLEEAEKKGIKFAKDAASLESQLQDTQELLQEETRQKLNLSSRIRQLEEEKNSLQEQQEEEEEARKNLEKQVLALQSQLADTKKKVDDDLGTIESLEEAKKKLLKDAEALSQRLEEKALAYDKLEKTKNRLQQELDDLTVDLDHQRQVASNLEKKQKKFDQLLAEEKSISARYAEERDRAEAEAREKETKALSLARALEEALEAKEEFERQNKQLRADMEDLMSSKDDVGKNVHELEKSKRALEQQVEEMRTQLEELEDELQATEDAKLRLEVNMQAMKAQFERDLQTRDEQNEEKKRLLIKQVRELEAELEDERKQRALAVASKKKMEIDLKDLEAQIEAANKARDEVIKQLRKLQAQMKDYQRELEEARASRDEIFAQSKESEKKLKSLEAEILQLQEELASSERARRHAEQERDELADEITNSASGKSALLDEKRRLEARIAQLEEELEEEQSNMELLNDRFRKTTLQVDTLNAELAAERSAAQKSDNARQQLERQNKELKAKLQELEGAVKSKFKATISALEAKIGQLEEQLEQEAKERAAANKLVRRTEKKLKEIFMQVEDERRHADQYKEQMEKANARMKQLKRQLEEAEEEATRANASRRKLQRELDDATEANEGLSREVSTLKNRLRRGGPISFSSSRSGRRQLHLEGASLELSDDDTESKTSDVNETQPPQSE
UniProt P35579, residues 2-1960: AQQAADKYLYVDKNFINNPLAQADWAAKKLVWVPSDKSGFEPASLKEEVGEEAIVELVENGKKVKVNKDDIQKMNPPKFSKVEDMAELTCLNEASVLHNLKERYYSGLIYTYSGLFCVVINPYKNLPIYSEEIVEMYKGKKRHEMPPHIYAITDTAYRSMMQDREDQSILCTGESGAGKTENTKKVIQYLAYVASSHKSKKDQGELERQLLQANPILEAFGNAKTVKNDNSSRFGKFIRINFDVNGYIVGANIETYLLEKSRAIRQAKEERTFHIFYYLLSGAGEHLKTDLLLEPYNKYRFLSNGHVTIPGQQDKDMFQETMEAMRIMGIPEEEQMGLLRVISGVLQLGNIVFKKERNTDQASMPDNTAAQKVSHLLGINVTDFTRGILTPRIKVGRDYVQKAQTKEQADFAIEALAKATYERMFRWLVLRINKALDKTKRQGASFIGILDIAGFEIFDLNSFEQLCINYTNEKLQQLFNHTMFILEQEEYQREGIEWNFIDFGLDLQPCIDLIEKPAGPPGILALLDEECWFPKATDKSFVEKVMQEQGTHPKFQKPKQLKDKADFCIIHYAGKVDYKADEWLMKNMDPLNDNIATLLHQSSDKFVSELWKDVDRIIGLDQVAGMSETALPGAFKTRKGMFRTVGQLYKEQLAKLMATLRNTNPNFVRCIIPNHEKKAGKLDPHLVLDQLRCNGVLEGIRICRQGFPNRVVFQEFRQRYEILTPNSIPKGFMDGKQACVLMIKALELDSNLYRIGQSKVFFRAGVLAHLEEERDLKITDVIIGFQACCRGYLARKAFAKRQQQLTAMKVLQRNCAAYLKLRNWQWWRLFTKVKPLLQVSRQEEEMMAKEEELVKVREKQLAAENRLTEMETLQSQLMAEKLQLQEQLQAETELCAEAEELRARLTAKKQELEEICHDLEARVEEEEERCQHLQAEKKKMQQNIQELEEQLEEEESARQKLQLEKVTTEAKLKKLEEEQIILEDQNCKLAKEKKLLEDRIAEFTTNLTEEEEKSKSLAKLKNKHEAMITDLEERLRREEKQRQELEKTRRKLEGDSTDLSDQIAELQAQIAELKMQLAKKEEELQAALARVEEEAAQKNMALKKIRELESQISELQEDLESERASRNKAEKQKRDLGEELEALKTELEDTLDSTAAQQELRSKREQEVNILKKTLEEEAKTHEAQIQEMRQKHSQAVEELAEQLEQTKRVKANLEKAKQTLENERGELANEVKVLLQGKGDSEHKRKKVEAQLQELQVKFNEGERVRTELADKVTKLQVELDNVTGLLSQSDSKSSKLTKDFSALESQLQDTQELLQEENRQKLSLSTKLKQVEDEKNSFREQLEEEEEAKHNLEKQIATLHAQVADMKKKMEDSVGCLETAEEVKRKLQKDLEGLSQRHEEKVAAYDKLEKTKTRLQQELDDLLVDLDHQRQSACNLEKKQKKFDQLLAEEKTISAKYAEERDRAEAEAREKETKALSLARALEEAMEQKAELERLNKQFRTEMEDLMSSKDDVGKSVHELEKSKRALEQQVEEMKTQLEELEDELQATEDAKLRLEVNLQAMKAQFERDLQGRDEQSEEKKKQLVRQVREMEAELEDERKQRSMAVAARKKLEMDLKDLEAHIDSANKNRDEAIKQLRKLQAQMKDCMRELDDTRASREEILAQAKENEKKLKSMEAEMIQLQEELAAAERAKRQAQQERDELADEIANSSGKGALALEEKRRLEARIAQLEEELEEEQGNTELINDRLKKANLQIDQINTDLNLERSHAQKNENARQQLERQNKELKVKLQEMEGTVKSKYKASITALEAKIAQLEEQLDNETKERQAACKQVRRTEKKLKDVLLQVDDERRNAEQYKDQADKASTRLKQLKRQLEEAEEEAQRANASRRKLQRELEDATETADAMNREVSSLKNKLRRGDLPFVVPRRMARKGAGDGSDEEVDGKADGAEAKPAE

Columns and labels:
[1] = molecular target: nonmuscle myosin IIB (human) (UniProt P35580); assay: co-immunoprecipitation with anti-HA antibody, lysate treated with RNase A or untreated (legend of FIG. 2d)
[2] = molecular target: nonmuscle myosin IIB (human) (UniProt P35580); assay: co-immunoprecipitation with anti-HA antibody, with or without RNase A digestion, Western blot with anti-myosin IIB
[3] = molecular target: nonmuscle myosin IIB (human) (UniProt P35580); assay: co-immunoprecipitation of HA-tagged LARP6 from lung fibroblasts treated with cycloheximide or puromycin, Western blot with anti-myosin IIB
[4] = molecular target: nonmuscle myosin IIB (human) (UniProt P35580); assay: co-immunoprecipitation with anti-HA antibody from control and ML-7-treated lung fibroblasts, Western blot with anti-myosin IIB
[5] = molecular target: nonmuscle myosin IIB (human) (UniProt P35580); assay: co-immunoprecipitation of HA-tagged LARP6 from control and ML-7-treated lung fibroblasts (legend of FIG. 5b)
[6] = molecular target: nonmuscle myosin IIB (human) (UniProt P35580); assay: co-immunoprecipitation with anti-HA antibody from human lung fibroblasts, Western blot with anti-myosin IIB
[7] = molecular target: nonmuscle myosin IIA (human) (UniProt P35579); assay: co-immunoprecipitation with anti-HA antibody from human lung fibroblasts, Western blot with anti-myosin IIA

Measured: binding

B1: HA-tagged full-size LARP6 (protein, not shown: small tags and cut ends)
chain: MAQSGGEARPGPKTAVQIRVAIQEAEDVDELEDEEEGAETRGAGDPARYLSPGWGSASEEEPSRGHSGTTASGGENEREDLEQEWKPPDEELIKKLVDQIEFYFSDENLEKDAFLLKHVRRNKLGYVSVKLLTSFKKVKHLTRDWRTTAHALKYSVVLELNEDHRKVRRTTPVPLFPNENLPSKMLLVYDLYLSPKLWALATPQKNGRVQEKVMEHLLKLFGTFGVISSVRILKPGRELPPDIRRISSRYSQVGTQECAIVEFEEVEAAIKAHEFMITESQGKENMKAVLIGMKPPKKKPAKDKNHDEEPTASIHLNKSLNKRVEELQYMGDESSANSSSDPESNPTSPMAGRRHAATNKLSPSGHQNLFLSPNASPCTSPWSSPLAQRKGVSRKSPLAEEGRLNCSTSPEIFRKCMDYSSDSSVTPSGSPWVRRRRQAEMGTQEKSPGTSPLLSRKMQTADGLPVGVLRLPRGPDNTRGFHGHERSRACV
binds: all assays above
